No constants are given. Whether binding was seen depends on the method and setting. Some binding calls cover weakened binding; strength is not graded here.
Key:
[1] = target: T1, individual second SH3 domain (SH3_2) of STAC3 (human) (UniProt Q96MF2); experiment: condition: up to 4:1 ratio of titrant to ~0.2 mM 15N-labelled protein; NMR titration; 1H-15N HSQC of ~0.2 mM 15N-labelled STAC construct titrated with C3 peptide (0.5:1, 1:1, 2:1, 4:1); 27 mM NaH2PO4, 30 mM Na2HPO4, 150 mM NaCl, 100 mM glutamic acid, 100 mM arginine, 3 mM EDTA, pH 6.8; 20°C; CSP cutoff 0.1 ppm; both purified
T1 sequence: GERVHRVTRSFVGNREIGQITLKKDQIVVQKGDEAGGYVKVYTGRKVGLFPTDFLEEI

Protein sequences, listed by entry. Tags and fused reporters are not part of them. Residues count along the entry.
UniProt P07293, residues 740-764: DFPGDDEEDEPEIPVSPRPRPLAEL

[2] = target: T2, tandem SH3 domains of STAC3 (SH3 and cysteine-rich domain-containing protein 3) (human) (UniProt Q96MF2); experiment: NMR titration; 1H-15N HSQC of ~0.2 mM 15N-labelled STAC construct titrated with C3 peptide (0.5:1, 1:1, 2:1, 4:1); 27 mM NaH2PO4, 30 mM Na2HPO4, 150 mM NaCl, 100 mM glutamic acid, 100 mM arginine, 3 mM EDTA, pH 6.8; 20°C; CSP cutoff 0.1 ppm; both purified
T2 sequence: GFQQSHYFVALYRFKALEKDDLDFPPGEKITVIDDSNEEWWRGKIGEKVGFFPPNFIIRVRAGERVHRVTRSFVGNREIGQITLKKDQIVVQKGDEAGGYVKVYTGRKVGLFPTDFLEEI

[3] = target: T3, tandem SH3 domains of STAC2 (human) (UniProt Q6ZMT1); experiment: as above
T3 sequence: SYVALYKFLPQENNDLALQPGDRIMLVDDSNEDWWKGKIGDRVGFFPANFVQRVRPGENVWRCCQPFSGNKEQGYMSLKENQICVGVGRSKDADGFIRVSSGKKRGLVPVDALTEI

Substance: II–III loop C3 peptide (residues 740–764 of the DHPR α1S subunit) (from UniProt P07293 740-764)
- binding [1]: no binding
- binding [2]: binds
- binding [3]: binds

Reference: article PMC9019556, “Molecular interactions of STAC proteins with skeletal muscle dihydropyridine receptor and excitation‐contraction coupling” (Protein Science : A Publication of the Protein Society, 2022)
